According to publication PMC10718020:
These are yes or no findings as the source states them, for the method shown. Binding seen in cells or lysates may run through a third protein. Some binding calls cover weakened binding; strength is not graded here.

Amino acid sequences for entries named in this document (tags omitted). Residues count along the entry.
UniProt Q9NZQ7, residues 19-290: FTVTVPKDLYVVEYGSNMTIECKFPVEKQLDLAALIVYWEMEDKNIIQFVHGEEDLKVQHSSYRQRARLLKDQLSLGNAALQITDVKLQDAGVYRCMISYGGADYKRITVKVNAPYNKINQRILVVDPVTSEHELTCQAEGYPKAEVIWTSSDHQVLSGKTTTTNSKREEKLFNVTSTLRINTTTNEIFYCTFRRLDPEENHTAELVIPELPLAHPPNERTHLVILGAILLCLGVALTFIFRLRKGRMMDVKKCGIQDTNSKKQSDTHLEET
UniProt P78527: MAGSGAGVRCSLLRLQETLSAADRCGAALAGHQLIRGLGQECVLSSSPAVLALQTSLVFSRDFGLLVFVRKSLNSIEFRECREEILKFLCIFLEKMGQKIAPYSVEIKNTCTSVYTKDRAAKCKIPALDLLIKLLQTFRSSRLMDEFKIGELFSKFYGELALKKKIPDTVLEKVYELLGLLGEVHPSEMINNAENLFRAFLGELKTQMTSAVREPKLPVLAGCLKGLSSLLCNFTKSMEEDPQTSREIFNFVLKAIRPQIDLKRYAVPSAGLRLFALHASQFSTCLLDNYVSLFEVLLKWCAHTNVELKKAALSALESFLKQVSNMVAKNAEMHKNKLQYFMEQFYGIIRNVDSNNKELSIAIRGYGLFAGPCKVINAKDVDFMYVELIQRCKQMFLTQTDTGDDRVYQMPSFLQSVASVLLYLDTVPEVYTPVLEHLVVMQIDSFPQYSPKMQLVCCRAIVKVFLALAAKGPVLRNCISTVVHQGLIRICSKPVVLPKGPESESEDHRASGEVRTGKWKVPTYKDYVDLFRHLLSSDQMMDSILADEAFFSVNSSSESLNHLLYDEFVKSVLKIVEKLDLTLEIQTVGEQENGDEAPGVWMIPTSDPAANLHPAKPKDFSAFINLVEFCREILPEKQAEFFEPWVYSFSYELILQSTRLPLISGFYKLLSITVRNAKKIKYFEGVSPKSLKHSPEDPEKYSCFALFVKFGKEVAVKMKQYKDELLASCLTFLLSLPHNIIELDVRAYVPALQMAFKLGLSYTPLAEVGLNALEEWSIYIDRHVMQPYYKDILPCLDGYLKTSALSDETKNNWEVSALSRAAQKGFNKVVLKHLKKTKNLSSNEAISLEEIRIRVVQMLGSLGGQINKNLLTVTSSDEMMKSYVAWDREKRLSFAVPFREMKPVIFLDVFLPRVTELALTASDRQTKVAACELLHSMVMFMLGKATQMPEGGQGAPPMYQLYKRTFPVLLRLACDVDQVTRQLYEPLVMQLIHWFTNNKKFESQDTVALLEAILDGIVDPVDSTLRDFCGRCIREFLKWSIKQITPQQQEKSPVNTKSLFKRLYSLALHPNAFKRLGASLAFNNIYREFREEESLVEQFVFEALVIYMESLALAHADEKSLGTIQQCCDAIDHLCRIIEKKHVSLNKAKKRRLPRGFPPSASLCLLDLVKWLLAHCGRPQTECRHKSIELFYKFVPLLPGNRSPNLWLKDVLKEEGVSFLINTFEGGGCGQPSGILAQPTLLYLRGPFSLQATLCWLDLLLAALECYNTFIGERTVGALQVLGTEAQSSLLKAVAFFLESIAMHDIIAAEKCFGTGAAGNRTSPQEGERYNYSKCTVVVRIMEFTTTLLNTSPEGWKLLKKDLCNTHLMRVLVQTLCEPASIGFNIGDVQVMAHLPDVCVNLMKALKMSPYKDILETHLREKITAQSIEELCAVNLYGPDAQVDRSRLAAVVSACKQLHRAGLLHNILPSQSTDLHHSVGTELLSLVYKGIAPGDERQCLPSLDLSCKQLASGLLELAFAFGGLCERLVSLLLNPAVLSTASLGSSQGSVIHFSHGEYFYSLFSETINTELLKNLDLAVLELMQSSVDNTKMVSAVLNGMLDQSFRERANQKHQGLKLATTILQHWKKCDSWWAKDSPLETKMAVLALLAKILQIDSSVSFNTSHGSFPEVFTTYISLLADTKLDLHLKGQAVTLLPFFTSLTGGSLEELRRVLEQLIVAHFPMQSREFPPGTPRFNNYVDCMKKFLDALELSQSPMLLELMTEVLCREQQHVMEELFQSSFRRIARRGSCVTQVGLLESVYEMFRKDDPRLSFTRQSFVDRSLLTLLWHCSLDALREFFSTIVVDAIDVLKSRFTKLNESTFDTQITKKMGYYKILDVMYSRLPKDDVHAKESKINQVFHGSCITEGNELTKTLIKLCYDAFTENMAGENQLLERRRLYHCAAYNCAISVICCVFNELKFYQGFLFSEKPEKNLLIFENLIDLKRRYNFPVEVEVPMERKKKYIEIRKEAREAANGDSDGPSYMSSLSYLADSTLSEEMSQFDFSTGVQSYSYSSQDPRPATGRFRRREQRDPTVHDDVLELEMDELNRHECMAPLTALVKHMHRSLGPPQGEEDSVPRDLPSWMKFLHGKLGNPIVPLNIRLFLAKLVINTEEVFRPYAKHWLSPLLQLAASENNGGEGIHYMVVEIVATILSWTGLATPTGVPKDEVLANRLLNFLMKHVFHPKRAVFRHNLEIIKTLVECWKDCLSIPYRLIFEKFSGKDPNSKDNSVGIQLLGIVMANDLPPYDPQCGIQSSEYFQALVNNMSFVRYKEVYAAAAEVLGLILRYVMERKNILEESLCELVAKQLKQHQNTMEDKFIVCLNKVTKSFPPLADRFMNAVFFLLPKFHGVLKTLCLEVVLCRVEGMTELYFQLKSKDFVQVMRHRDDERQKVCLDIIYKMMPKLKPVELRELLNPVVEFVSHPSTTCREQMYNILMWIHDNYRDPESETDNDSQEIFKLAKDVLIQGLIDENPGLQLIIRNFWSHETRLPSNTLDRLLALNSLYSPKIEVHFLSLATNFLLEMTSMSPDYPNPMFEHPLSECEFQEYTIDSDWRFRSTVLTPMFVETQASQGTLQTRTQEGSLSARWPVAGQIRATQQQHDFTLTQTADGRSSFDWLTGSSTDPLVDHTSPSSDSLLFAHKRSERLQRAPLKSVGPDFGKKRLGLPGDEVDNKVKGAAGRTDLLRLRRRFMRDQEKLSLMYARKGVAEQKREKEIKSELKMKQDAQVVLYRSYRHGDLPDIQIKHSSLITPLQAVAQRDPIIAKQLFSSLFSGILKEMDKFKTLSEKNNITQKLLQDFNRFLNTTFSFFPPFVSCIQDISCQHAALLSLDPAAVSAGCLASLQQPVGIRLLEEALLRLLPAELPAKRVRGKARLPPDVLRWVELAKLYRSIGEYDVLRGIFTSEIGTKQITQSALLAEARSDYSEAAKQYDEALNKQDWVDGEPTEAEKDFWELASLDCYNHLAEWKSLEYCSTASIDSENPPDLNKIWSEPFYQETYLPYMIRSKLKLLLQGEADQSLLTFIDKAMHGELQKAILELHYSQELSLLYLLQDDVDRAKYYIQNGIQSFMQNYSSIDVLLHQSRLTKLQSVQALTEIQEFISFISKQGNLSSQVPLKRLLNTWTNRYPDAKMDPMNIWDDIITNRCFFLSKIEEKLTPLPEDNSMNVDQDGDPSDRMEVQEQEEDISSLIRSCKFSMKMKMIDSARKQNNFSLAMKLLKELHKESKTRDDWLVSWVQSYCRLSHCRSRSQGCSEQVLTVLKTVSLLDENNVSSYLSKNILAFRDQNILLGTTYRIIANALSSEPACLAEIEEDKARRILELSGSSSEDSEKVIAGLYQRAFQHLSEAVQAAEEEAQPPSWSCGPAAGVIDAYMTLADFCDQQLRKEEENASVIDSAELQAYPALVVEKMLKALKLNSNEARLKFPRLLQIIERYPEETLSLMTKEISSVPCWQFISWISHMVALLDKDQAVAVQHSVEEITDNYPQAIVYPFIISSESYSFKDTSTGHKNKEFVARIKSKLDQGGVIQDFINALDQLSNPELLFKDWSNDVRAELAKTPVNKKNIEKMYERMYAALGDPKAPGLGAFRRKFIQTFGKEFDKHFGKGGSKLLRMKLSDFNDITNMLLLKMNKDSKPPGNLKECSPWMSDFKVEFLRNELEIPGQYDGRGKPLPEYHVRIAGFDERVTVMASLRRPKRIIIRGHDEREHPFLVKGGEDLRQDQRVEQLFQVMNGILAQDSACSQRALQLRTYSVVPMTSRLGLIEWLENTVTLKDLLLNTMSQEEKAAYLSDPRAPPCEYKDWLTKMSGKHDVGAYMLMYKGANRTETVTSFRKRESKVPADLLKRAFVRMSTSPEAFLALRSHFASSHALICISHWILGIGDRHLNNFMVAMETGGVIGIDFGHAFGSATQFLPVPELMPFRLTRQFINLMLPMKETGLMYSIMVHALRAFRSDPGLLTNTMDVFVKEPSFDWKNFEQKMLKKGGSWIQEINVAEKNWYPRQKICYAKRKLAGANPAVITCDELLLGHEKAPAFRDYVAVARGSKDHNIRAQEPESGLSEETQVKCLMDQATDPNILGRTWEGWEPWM

Columns and labels:
[1] = target: Programmed cell death 1 ligand 1 (PD-L1) (not stated (endogenous in tumor cells, line not named)) (UniProt Q9NZQ7); assay: co-IP; endogenous proteins in tumor cells; precipitated with DNA-PK mAb and, in turn, with the antibody against PD-L1; Western blot
[2] = target: DNA-dependent protein kinase (DNA-PK), PRKDC encoded protein DNA-PKcs, in HEK-293 T cells (human) (UniProt P78527); assay: co-IP; 'exogenous' co-immunoprecipitation in HEK-293 T cells transfected with hsa_circ_0136666 or miR-375 mimics; Western blot
[3] = target: DNA-dependent protein kinase (DNA-PK), PRKDC encoded protein DNA-PKcs (not stated (endogenous in tumor cells, line not named)) (UniProt P78527); assay: co-IP; endogenous proteins in tumor cells; precipitated with DNA-PK mAb and, in turn, with the antibody against PD-L1; Western blot

DNA-dependent protein kinase (DNA-PK), PRKDC encoded protein DNA-PKcs (from UniProt P78527 1-4128) (enzyme)
binding [1]: binds

Programmed cell death 1 ligand 1 (PD-L1), in HEK-293 T cells (from UniProt Q9NZQ7 19-290)
binding [2]: binds

Programmed cell death 1 ligand 1 (PD-L1) (from UniProt Q9NZQ7 19-290)
binding [3]: binds
